From the supplement of paper PMC8773631 come the findings set out here.

± gives the uncertainty stated by the source. This is a selection; strong and weak results do not stand in their true shares.

The assay relates to NCC-MFS5-C1. In words: cell viability relative to DMSO control; higher = less growth inhibition. Particulars: 10 µM; treatment time: 3 days. The method, then:
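NCC-MFS5-C1 myxofibrosarcoma cells (1x10^4 per well, 384-well) were treated on day 2 with 10 µM of each drug. On day 5, viability was read by CCK-8 absorbance at 450 nm and normalised to the DMSO control (%), n = 2.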
Regarding `COC(=O)[C@H](CCCN=C(N)N)NS(=O)(=O)c1ccc(C)cc1`, the cell viability (in general, a read-out of living cells in per cent, often relative to untreated cells) amounted to 101 ± 2.2%.
